Results taken from PubChem BioAssay AID1347076 (National Center for Advancing Translational Sciences (NCATS), 2019).
Among all 400,000 compounds or so, about 13,000 (3.2%) were called active. Inconclusive means that the source gave no clear call. Such entries were picked first, then a sample of the others. Calls follow the shape of the dose curve; as a rule, active = well fitted cell-killing curve with a large enough effect; inconclusive = small, poorly fitted or top-dose-only effect, or effect the other way; inactive = flat fitted curve, though single readings scatter. Potencies of inconclusive entries are doubtful fits and often do not repeat.

Test: qHTS assay for MDR1-selective chemotherapeutics: Primary screen using the drug-selected MDR subline cells KB-V1; also: nearly all actives have a fitted effect of over 60% in size
Settings: KB-V1 MDR cells viability, CellTiter-Glo, 72 h; series mostly up to 46.1 µM
In short: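 Following 72 h at 37 degrees C with compound, KB-V1 cell viability was read by CellTiter-Glo luminescence, medium being phenol-red-free DMEM plus 10% FBS; concentration-response parameters came from normalized, curve-fitted qHTS data.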
Potency is read from the fitted curve at half-maximal effect.

Row | SMILES | Potency
1 | COCCCN1C(=O)C(=O)/C(=C(/O)c2ccc(S(=O)(=O)N3CCOCC3)cc2)C1c1ccc(Cl)cc1 (stereo not given) | inconclusive: 18.4 µM [rising, partial curve, poor fit]
2 | c1ccc(-c2nc(N3CCNCC3)nc3ccccc23)cc1 | inconclusive: 29.1 µM [cytotoxic, single point]
3 | C/C(=N\NC(=O)c1ccccc1O)c1ccc(NC(=O)c2ccccc2)cc1 | inactive
4 | CC1=NOC(=O)/C1=C\c1ccc(-c2ccc(Br)cc2C(=O)O)o1 | inconclusive: 0.461 µM [rising, full curve]
5 | O=C(/C=C/c1ccc2c(c1)OCCCO2)c1ccc2ccccc2c1O | inconclusive: 29.1 µM [cytotoxic, single point]
6 | CC(=O)NNC(=S)NC(=O)c1ccccc1 | inconclusive: 29.1 µM [cytotoxic, single point]
7 | Cc1ccc(N(C(=O)c2cc3ccccc3oc2=O)C2C=CS(=O)(=O)C2)cc1 (stereo not given) | inconclusive: 20.6 µM [rising, partial curve]
8 | CN(c1ccccc1)S(=O)(=O)c1ccc(C(=O)NCc2cccs2)cc1 | inconclusive: 29.1 µM [cytotoxic, partial curve, poor fit]
9 | Cc1cc(C)c2nc(C)cc(N/N=C/c3ccc(O)cc3)c2c1 | inconclusive: 29.1 µM [cytotoxic, single point]
10 | O=C(c1ccc2ccccc2c1)C1CCCN(C(=O)CN2C(=O)CSC2=O)C1 (stereo not given) | inconclusive: 0.651 µM [cytotoxic, full curve, poor fit]
11 | O=C(CCCn1c(=O)oc2ccccc21)NNC(=O)COc1ccc(F)cc1 | inconclusive: 16.4 µM [rising, single point]
12 | CCc1cc2ccc(C)cc2nc1SCC(=O)N1CCN(C(=O)c2ccco2)CC1 | active: 5.17 µM
13 | COC(=O)c1cc(C(=O)c2c(C)cc3ccccn23)cc([N+](=O)[O-])c1 | inactive
14 | O=[N+]([O-])c1cc(Cl)cc(/C=N/NC(=S)Nc2ccc(S(=O)(=O)N3CCOCC3)cc2)c1O | inactive
15 | Oc1ccc(/C(Cc2ccc3ccccc3n2)=N\Nc2ccccc2)c(O)c1 | inconclusive: 6.51 µM [cytotoxic, partial curve]
16 | Cc1cc(F)ccc1S(=O)(=O)Nc1ncnc2sc3c(c12)CCC3 | inconclusive: 13 µM [cytotoxic, partial curve]
17 | O=c1ccc2cc3c(-c4ccccc4)coc3cc2o1 | active: 6.51 µM
18 | COc1ccc(CC(=O)Nc2cccc(Cl)c2C)cc1S(=O)(=O)N1CCOCC1 | inactive
19 | CC(=O)c1cc(C(=O)N2CCCC(C(=O)c3ccc(Cl)cc3)C2)cs1 (stereo not given) | inconclusive: 29.1 µM [cytotoxic, single point]
20 | CN(C)Cc1csc(NC(=O)Nc2ccccc2Oc2ccccc2)n1 | inconclusive: 29.1 µM [cytotoxic, partial curve, poor fit]
21 | Cc1cc(C)c(C#N)c(SCc2cn3ccccc3n2)n1 | inconclusive: 20.6 µM [cytotoxic, single point]
22 | CCc1ccc(OCc2nnc(-c3ccccc3Br)o2)cc1 | inconclusive: 29.1 µM [cytotoxic, partial curve, poor fit]
23 | CC(=O)N(Cc1ccco1)C1(C(=O)NC2CCCCC2)CCCCC1 | inactive
24 | COc1ccc(NC(=O)c2cccc(N3C(=O)c4cccc([N+](=O)[O-])c4C3=O)c2)cc1 | inconclusive: 29.1 µM [rising, single point]
25 | COC(=O)CNC(c1ccccc1Cl)c1cc(Br)ccc1NC(=O)CCN1CCOCC1 (stereo not given) | inconclusive: 8.2 µM [cytotoxic, partial curve]

An excerpt of these results, as labelled records.
Cc1cc(C)c(C#N)c(SCc2cn3ccccc3n2)n1
  Potency: inconclusive: 20.6 µM [cytotoxic, single point]
CCc1ccc(OCc2nnc(-c3ccccc3Br)o2)cc1
  Potency: inconclusive: 29.1 µM [cytotoxic, partial curve, poor fit]

Next entries.

Row | SMILES | Potency
26 | O=C(NCCc1ccc(C(F)(F)F)cc1)c1ccc(Cl)nc1 | inactive
27 | O=C(NCc1ccccc1)c1cccc(COc2ccc3c(c2)CCC3)c1 | active: 16.4 µM
28 | CN(Cc1ccc(Cl)cc1Cl)C(=O)Cc1ccc(S(=O)(=O)N2CCOCC2)s1 | inconclusive: 14.6 µM [cytotoxic, partial curve]
29 | CC(=C/C(=O)O)/C=C/c1ccc(Cl)o1 | inactive
30 | Cc1cccc(COC[C@H](CC(C)C)N2CCN(C(=O)c3ccc(C(F)(F)F)cc3)CCC2=O)c1 | inconclusive: 23.1 µM [cytotoxic, single point]
31 | Cc1ccc(NC(=O)c2ccc(C(C)(C)C)cc2)cc1[N+](=O)[O-] | inconclusive: 29.1 µM [cytotoxic, single point]
32 | COC(=O)c1cc2oc(C)cc2n1Cc1ccc(Br)cc1F | inactive
33 | O=C(Nc1sc2c(c1C(=O)O)CCC2)c1cccs1 | active: 23.1 µM
34 | COCCn1c(SCC(=O)Nc2ccccc2C)nc2c(oc3ccccc32)c1=O | inconclusive: 0.82 µM [cytotoxic, full curve]
35 | CCCN(CC(=O)Nc1ccccc1OC)C(=O)c1ccc(S(=O)(=O)Nc2ccccc2OC)cc1 | inconclusive: 2.59 µM [cytotoxic, full curve, poor fit]
36 | O=C1CC(N2CCOCC2)C(=O)N1c1cc(Cl)cc(Cl)c1 (stereo not given) | inactive
37 | CCOC(=O)[C@]12CCC=C1N(Cc1ccc(Cl)cc1Cl)C(=O)[C@H](CC(=O)NCCc1ccccc1OC)C2 | inconclusive: 18.4 µM [cytotoxic, single point]
38 | CCOC(=O)CN1C(=O)C(O)=C(C(C)=O)C1c1ccc(F)cc1 (stereo not given) | inconclusive: 29.1 µM [rising, single point]
39 | CC1CC(C)CN(C(=O)/C(=C\c2ccccc2)c2ccccc2)C1 (stereo not given) | active: 8.2 µM
40 | CCCCc1ccc(N/C(N)=N/c2nc(C)cc(C)n2)cc1 | active: 6.51 µM
41 | CN(C)c1ccccc1-c1cc(NC=O)c2ncc(-c3cccc(C(F)(F)F)c3)n2c1 | inconclusive: 20.6 µM [cytotoxic, single point]
42 | O=C(C1CCCN(S(=O)(=O)c2cccc3nonc23)C1)N1CCC(Cc2ccccc2)CC1 (stereo not given) | inactive
43 | C/C(=N\NC(=O)c1ccc(OC2CCCC2)cc1)c1ccc(O)cc1 | inconclusive: 13 µM [cytotoxic, partial curve]
44 | COc1ccc(Nc2nc3ccc(OC)cc3s2)cc1 | inconclusive: 18.4 µM [cytotoxic, single point]
45 | Nc1cccc2c1C(=O)N(C(=O)/C=C/c1cccc(F)c1)C2=O | inconclusive: 20.6 µM [cytotoxic, single point]
46 | COc1ccc(NC(=S)NC2CCCCCC2)c(OC)c1 | active: 18.4 µM
47 | COc1ccc(S(=O)(=O)Nc2ccccc2C(=O)OC2CCCN(C)C2)cc1OC (stereo not given) | inconclusive: 1.46 µM [cytotoxic, partial curve, poor fit]
48 | O=C(c1cnc2ccc3ccccc3c2c1)c1cc(F)ccc1O | active: 3.66 µM
49 | CCCCCc1cc(=O)oc2c(C(CCN3CCCCC3)c3ccc(OC)cc3)c(OC)cc(OC)c12 (stereo not given) | inconclusive: 14.6 µM [cytotoxic, partial curve]
50 | COc1ccc(/C=C/c2cnccn2)cc1OC | inactive

Among those listed so far, these have bromine:
Row | SMILES | Potency
4 | CC1=NOC(=O)/C1=C\c1ccc(-c2ccc(Br)cc2C(=O)O)o1 | inconclusive: 0.461 µM [rising, full curve]
22 | CCc1ccc(OCc2nnc(-c3ccccc3Br)o2)cc1 | inconclusive: 29.1 µM [cytotoxic, partial curve, poor fit]
25 | COC(=O)CNC(c1ccccc1Cl)c1cc(Br)ccc1NC(=O)CCN1CCOCC1 (stereo not given) | inconclusive: 8.2 µM [cytotoxic, partial curve]
32 | COC(=O)c1cc2oc(C)cc2n1Cc1ccc(Br)cc1F | inactive

Next part

Row | SMILES | Potency
51 | O=C(Nc1ccccc1N1CCN(c2ccccc2)CC1)c1cccc(F)c1 | active: 11.6 µM
52 | CCOc1ccc(NC(=O)CSc2nnc(NC(=O)C3CC3)s2)cc1 | inactive
53 | CCN(CC)CCNC(Cc1ccccc1)c1cccc(OC)c1 (stereo not given) | active: 23.1 µM
54 | Fc1ccc(N2CCN(Cc3cn[nH]c3-c3ccccc3)CC2)cc1 | inactive
55 | Cc1cc(=O)oc2c(C)c(OC3CCCCC3=O)ccc12 (stereo not given) | inactive
56 | N=C(N)SCc1cn(-c2ccccc2)nc1-c1ccc(Br)cc1 | active: 18.4 µM
57 | COC(=O)N1CCCCC1c1cc(C(=O)NCc2ccccc2)no1 (stereo not given) | inactive
58 | COc1cc(Cl)ccc1OC1(C)CCN(Cc2ccc3ccccc3c2)C1 (stereo not given) | inconclusive: 29.1 µM [cytotoxic, single point]
59 | Cc1noc(C)c1S(=O)(=O)N(CC(=O)NC(C)c1ccccc1)c1ccc(C(C)C)cc1 (stereo not given) | inactive
60 | O=C(Cn1nnc2ccccc2c1=O)Nc1cccc(S(=O)(=O)N2CCOCC2)c1 | inactive
61 | O=C(CN1CCN(C(=O)C2CC2)CC1)Nc1cc(C(F)(F)F)cc(C(F)(F)F)c1 | active: 20.6 µM
62 | Cc1ccc(NC(=O)c2c(C(F)(F)F)nn(C)c2SCc2ccc(Cl)cc2)cc1C | active: 8.2 µM
63 | CS(=O)(=O)N(Cc1ccc(C(=O)NCCSc2ccccn2)cc1)c1ccccc1 | active: 5.8 µM
64 | Cc1nn(Cc2ccc(F)cc2)c(C)c1NC(=O)CCCn1nc([N+](=O)[O-])cc1C | inconclusive: 16.4 µM [cytotoxic, partial curve, poor fit]
65 | CC(NC(=O)CCSCCC(=O)NC(C)c1ccccc1)c1ccccc1 (stereo not given) | active: 16.4 µM
66 | COC(=O)c1ccc(=O)n(CC(=O)c2ccc(Cl)cc2)c1 | inactive
67 | COc1cccc2c1OCC(CN1CCN(Cc3ccccc3F)C(CCO)C1)=C2 (stereo not given) | inconclusive: 23.1 µM [cytotoxic, single point]
68 | COc1ccccc1CN(C)CC(=O)Nc1ccc(Cl)cc1F | inactive
69 | CCN(CC)C(=O)c1[nH]cnc1C(=O)N[C@@H](Cc1ccccc1)C(=O)OC(C)(C)C | inactive
70 | Cc1ncc(CO)c2c1Oc1nc(-c3ccccc3Cl)nc(SCc3ccccc3F)c1C2 | inactive
71 | Cc1ccc(C)c(NC(=O)n2ncc3cc(Cl)ccc32)c1 | inactive
72 | CCOc1ccccc1N1CCN(C(=O)c2ccc3c(c2)OCO3)CC1 | inconclusive: 18.4 µM [cytotoxic, partial curve]
73 | CN(C(=O)Cn1nnc2ccccc2c1=O)C1CCCCC1 | inactive
74 | COc1ccc(CCn2c(-c3ccc(F)cc3)nc3c(c(=O)c4ccccc4n3C)c2=O)cc1OC | inactive
75 | C[C@@H]1CCCCO[C@H](CN(C)S(=O)(=O)c2cn(C)cn2)[C@H](C)CN([C@@H](C)CO)C(=O)c2cc(NC(=O)c3ccccc3)ccc2O1 | inconclusive: 4.11 µM [rising, full curve, poor fit]
